For 2 molecules, binding results are on record in PMC11236974.

No constants are given. Whether binding was seen depends on the method and setting. Binding seen in cells or lysates may run through a third protein. Some results given as binding are weak or reduced against the parent protein; the word gives no strength. Tags and fused reporters may be left off the sequences shown.

In this experiment the target is T1, FliG of the polar flagellar system, full length (pulldown prey) (S. putrefaciens).
T1 sequence: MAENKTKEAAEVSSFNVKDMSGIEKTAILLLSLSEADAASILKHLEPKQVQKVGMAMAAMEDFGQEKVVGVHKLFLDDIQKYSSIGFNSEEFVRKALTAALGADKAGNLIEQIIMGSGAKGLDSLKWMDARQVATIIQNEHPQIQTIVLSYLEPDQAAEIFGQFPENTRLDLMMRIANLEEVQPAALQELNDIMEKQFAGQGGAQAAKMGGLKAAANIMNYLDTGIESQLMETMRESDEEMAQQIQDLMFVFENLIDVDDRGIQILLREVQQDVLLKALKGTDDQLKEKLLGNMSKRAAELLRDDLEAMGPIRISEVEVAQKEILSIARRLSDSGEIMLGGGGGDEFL
In words: pull-down; cultures of StrepII-tagged bait and His-tagged tested proteins combined and lysed; lysate on MagStrep Strep-Tactin XT beads, 30 min, 4 °C; three washes with SEC buffer; eluted with D-biotin; Coomassie-stained SDS-PAGE.

B1: FliN (of FliM/N, pulldown) (protein, UniProt A0ABX8X9E3 1-127)
chain: MSTEDTGDDWAAAMAEQALEEANAVALDELVDDSQPISKADAAKLDTILDIPVTISMEVGRSFISIRNLLQLNQGSVVELDRVAGEPLDVMVNGTLIAHGEVVVVNDKFGIRLTDVISQTERIKKLK
Regarding B1, the binding entry is “binds”.

B2: FliM (of FliM/N, pulldown) (protein, UniProt A0ABX8X8Z6 1-343)
chain: MSDLLSQDEIDALLHGVDDVDDDDDLDAASQDARSYDFSSQDRIVRGRMPTLEIVNERFARHLRISMFNMMRRAAEVSINGVQMLKFGEYVHTLFVPTSLNMVRFSPLKGTALITMEARLVFILVDNFFGGDGRFHAKIEGREFTPTERRIVQLLLKIIFEDYKDAWAPVMDVEFDYLDSEVNPAMANIVSPTEVVVINSFHIEVDGGGGDFHITMPYSMIEPIRELLDAGVQSDKQDTDMRWSQALHDEIMDVKVGFDACVVEHELTLKDVMNFKAGDIIPVELPEYIMMKIEDLPTYRCKMGRSRDNLALKIYEKIPRPETVKTELQLVTRKGKARDISEL
As to B2, the binding entry is given as “binds”.
